Test results taken from PMC7819943, “Rice protein-binding microarrays: a tool to detect cis-acting elements near promoter regions in rice”.
Some of the results follow.

Amino acid sequences for entries named in this document (tags omitted).
UniProt Q0JBA9, entry or part of it: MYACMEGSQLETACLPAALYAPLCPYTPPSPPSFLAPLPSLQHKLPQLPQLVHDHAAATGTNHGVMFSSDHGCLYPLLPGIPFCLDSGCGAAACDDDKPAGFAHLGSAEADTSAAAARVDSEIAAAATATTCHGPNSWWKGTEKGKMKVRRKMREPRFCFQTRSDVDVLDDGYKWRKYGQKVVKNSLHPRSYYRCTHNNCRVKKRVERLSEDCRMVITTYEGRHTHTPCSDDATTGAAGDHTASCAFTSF

These sequences were tested against OsWRKY34 (Oryza sativa, UniProt Q0JBA9 1-250) (assay: protein-binding microarray (RPBM); PBS, 2% BSA, 51.3 ng/ul salmon testes DNA, 50 uM zinc acetate, 200 nM TF, 25 C, 1 h; high values mean tight binding). Settings: protein: recombinant; tags: N-terminal polyhistidine and DsRed monomer fusion (pET32a); label: CyDye5-dUTP incorporated in the synthesized complementary strand; 3' TTTTT single-stranded linker to array surface; dsDNA, one strand shown.
Outline: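 Transcription factors were each fused at the N-terminus to a polyhistidine tag plus DsRed and expressed in E. coli BL21-CodonPlus before Ni–NTA purification. Binding to a double-stranded custom Agilent array was carried out with 200 nM protein at 25 °C for 1 h in PBS, 2% BSA, salmon testes DNA and 50 µM zinc acetate. The binding signal is per-feature fluorescence intensity, in arbitrary units, on an Axon 4000B scanner.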
In the case of “TTTGCGTTGCGGGGAGAGGGATATTAAAGGCAAAGGATACCGGAGTCACCTAGTGCAG”, the binding signal is reported as 8240 fluorescence intensity (a.u.).
For “CCGTATATCCGCTTACGTCACCTCGCTGCTTGGCCTTGTTCGGAGTCACCTAGTGCAG”, the binding signal was 10000 fluorescence intensity (a.u.).
In the case of “ACCGTTGAATTTTAGATATAAGTTTGACTATTCATCTTATCGGAGTCACCTAGTGCAG”, the binding signal is reported as 9130 fluorescence intensity (a.u.).
“GATATGTAGATGGTGACTACAAGATTCTTTTCTTCTTTTTCGGAGTCACCTAGTGCAG” was tested, and the binding signal was 10100 fluorescence intensity (a.u.).
For “TGACCCCACAATCGTCCCACACCAAGCTCACAAGTCCCAACGGAGTCACCTAGTGCAG”, the binding signal was 9680 fluorescence intensity (a.u.).
With “AGTCACACCAGCATTTGCTAATTGGCTGCTCATCTGCTGTCGGAGTCACCTAGTGCAG” the binding signal was 8870 fluorescence intensity (a.u.).
With “ATCCATCCGAGCTCTCTCTCTCTCTCTGTCTTCTCTCTACCGGAGTCACCTAGTGCAG” the binding signal was 10700 fluorescence intensity (a.u.).
With “GACCATTGACCAAATAAACCTTCGCTATTGGTTGATTTGTCGGAGTCACCTAGTGCAG” the binding signal was 8720 fluorescence intensity (a.u.).
With “ACGCCCGCGGACTTTTGACCACCGACGCGATGTCAACCTCCGGAGTCACCTAGTGCAG” the binding signal was 8210 fluorescence intensity (a.u.).
For “TGTTGGTCAATTTGGCGTTGCCGTAATGATATGGTTTTTACGGAGTCACCTAGTGCAG”, the binding signal was 9640 fluorescence intensity (a.u.).
In the case of “TTATTATGACCATTTTTTGACTTTATGCAATTTAGCCCCTCGGAGTCACCTAGTGCAG”, the binding signal is reported as 8100 fluorescence intensity (a.u.).
In the case of “CCACATCACCAACAACTCTCGCCGCCTCACACTCGCAGATCGGAGTCACCTAGTGCAG”, the binding signal is reported as 9460 fluorescence intensity (a.u.).
With “GTACGACCAATTTCCGTTTCATCATCATGTCGGGCAGTAACGGAGTCACCTAGTGCAG” the binding signal was 9590 fluorescence intensity (a.u.).
With “TGTTCTTGGCTGCTGGTCTTAGTTTTTGGCTGTCATGTATCGGAGTCACCTAGTGCAG” the binding signal was 11100 fluorescence intensity (a.u.).
“GCGCGCGTCCCGTCACGTCTTTTCTCCTCGCCTATATGCCCGGAGTCACCTAGTGCAG” was tested, and the binding signal was 9050 fluorescence intensity (a.u.).
For “CCCGATCCCATGTCACCGACACCCTCCGTTTCTAAATATTCGGAGTCACCTAGTGCAG”, the binding signal was 11600 fluorescence intensity (a.u.).
With “GTGTTAGACGAAATGTCTCACCCAGCATCGCACCACTTTCCGGAGTCACCTAGTGCAG” the binding signal was 8030 fluorescence intensity (a.u.).
With “AATTAATCCGTCATTAGAGTTTATTGTAGCACCACATTGTCGGAGTCACCTAGTGCAG” the binding signal was 8160 fluorescence intensity (a.u.).
For “GTTGATGTTCGCCGACCCCACGATGATGTACTCGTCGTCCCGGAGTCACCTAGTGCAG”, the binding signal was 8770 fluorescence intensity (a.u.).
With “TCGCGTGCTGCTTCTCGCTACCTCGTTGCAGTCACTACACCGGAGTCACCTAGTGCAG” the binding signal was 8440 fluorescence intensity (a.u.).
For “TCATACGACACTACGCCTGGTCGACCTTATTATTACCAACCGGAGTCACCTAGTGCAG”, the binding signal was 14800 fluorescence intensity (a.u.).
With “CGTACGCGCCCACGCCCACTCCCACGCCTTCGCGCGCGCGCGGAGTCACCTAGTGCAG” the binding signal was 9220 fluorescence intensity (a.u.).
“TTTTGCTTGCAACGTTTCACCACTCGTCTTATTCAAAATTCGGAGTCACCTAGTGCAG” was tested, and the binding signal was 8750 fluorescence intensity (a.u.).
“GTACTTCCTACTGTTACATATGTCATCGTCATCTTCTCCACGGAGTCACCTAGTGCAG” was tested, and the binding signal was 8090 fluorescence intensity (a.u.).
With “ATCCTTTTTCATTTTACCTGTTTTATTTACTTTAGTTAGTCGGAGTCACCTAGTGCAG” the binding signal was 15600 fluorescence intensity (a.u.).
With “GACCAATGTGCGCCCAAGATTGATCTGCCACCGTCCGTGACGGAGTCACCTAGTGCAG” the binding signal was 9240 fluorescence intensity (a.u.).
For “GCACCAGAAATGGCCATGGTCAGCTTCAGAAATTCATGACCGGAGTCACCTAGTGCAG”, the binding signal was 8230 fluorescence intensity (a.u.).
With “GATTCAGCGTATAAGTACCCCTAGTGTTCACCTCTCTTCTCGGAGTCACCTAGTGCAG” the binding signal was 8470 fluorescence intensity (a.u.).
For “TCTCCACTGTGCATACGCTTCTCTCTTTCCGCCACGGCGACGGAGTCACCTAGTGCAG”, the binding signal was 8210 fluorescence intensity (a.u.).
In the case of “ATAAAACAAATGGTCAAACGTTAGTCGAAAAGTCAACGGCCGGAGTCACCTAGTGCAG”, the binding signal is reported as 12300 fluorescence intensity (a.u.).
“TTTTCGTGTTCGGGTTTGGGTTTGAGTGCCGCATCTGCAACGGAGTCACCTAGTGCAG” was tested, and the binding signal was 21500 fluorescence intensity (a.u.).
With “TCGCCGTCGCCCCTGAGTTCGTGTTCTGCTGTTGAACCGCCGGAGTCACCTAGTGCAG” the binding signal was 9890 fluorescence intensity (a.u.).
For “GCAGCCTCGCTCAGCTCGATCTCTCTCTCGTCTCGCCATGCGGAGTCACCTAGTGCAG”, the binding signal was 8530 fluorescence intensity (a.u.).
For “AGAGACAGAGATCAGTGACACGCATCTACCACTAAAATTTCGGAGTCACCTAGTGCAG”, the binding signal was 8440 fluorescence intensity (a.u.).
In the case of “GGGCTCGCCGCCGTTGACCCGCAGGGCGTCGGAGCACGGTCGGAGTCACCTAGTGCAG”, the binding signal is reported as 8140 fluorescence intensity (a.u.).
“GGGAAAATGGCGAGCATTCTTTTTTTTTTCTCTCGGGGTTCGGAGTCACCTAGTGCAG” was tested, and the binding signal was 10300 fluorescence intensity (a.u.).
For “CATACAGCTGAGCTGATGATGGTTATCGTTCTGAACTTCTCGGAGTCACCTAGTGCAG”, the binding signal was 8550 fluorescence intensity (a.u.).
In the case of “GCCCCGTTGGCCAAATCTCTCTCCCTCACTTCAGTTCCGCCGGAGTCACCTAGTGCAG”, the binding signal is reported as 9100 fluorescence intensity (a.u.).
With “CTCTGTTTCTAAATATTTGACACCATTGACTTTTTAGCATCGGAGTCACCTAGTGCAG” the binding signal was 10900 fluorescence intensity (a.u.).
“GGTTACGCGTCCATTTCATCTCGAGATTTTTCTCCTCTTCCGGAGTCACCTAGTGCAG” was tested, and the binding signal was 11100 fluorescence intensity (a.u.).
With “TTTTAATGTATGACGCCGTTGACTTTTTATACGTTTGACCCGGAGTCACCTAGTGCAG” the binding signal was 32200 fluorescence intensity (a.u.).
With “TTTTTCCCCTTTCTTCTCCTTTCTCTGTTATCCGTGCAGACGGAGTCACCTAGTGCAG” the binding signal was 9020 fluorescence intensity (a.u.).
